# Inconclusive results, whose numbers are uncertain, are shown with a selection of clear calls. For part of these data: Where the call is inconclusive, the potency comes from a doubtful curve fit. For part of these data: “Side channel” marks fits to a control or component signal instead of the main read-out. The source made the active and inactive calls. Unless noted, calls come from the whole dose curve; as a rule, active = well fitted curve in the direction sought with a large enough effect; inconclusive = small, poorly fitted or top-dose-only effect, or another doubt; inactive = no such curve, though single readings can be large; an effect the other way counts as inactive or inconclusive.
# Sequences of proteins named here, by UniProt entry; tags and fusion partners are left off. A change or cut given only in a name is not applied to a line headed by its entry.
# UniProt P08482: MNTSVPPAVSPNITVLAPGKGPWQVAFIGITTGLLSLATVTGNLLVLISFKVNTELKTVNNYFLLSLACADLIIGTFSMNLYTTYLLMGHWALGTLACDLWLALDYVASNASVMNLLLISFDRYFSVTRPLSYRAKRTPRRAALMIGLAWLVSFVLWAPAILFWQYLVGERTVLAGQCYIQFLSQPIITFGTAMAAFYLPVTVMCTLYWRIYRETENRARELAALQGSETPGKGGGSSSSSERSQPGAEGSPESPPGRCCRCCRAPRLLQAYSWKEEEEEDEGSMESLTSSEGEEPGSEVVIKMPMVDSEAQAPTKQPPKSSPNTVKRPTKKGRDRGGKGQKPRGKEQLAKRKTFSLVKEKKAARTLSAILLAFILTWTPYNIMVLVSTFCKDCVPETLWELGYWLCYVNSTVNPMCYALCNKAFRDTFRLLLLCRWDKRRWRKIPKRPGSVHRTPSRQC
# UniProt P04150: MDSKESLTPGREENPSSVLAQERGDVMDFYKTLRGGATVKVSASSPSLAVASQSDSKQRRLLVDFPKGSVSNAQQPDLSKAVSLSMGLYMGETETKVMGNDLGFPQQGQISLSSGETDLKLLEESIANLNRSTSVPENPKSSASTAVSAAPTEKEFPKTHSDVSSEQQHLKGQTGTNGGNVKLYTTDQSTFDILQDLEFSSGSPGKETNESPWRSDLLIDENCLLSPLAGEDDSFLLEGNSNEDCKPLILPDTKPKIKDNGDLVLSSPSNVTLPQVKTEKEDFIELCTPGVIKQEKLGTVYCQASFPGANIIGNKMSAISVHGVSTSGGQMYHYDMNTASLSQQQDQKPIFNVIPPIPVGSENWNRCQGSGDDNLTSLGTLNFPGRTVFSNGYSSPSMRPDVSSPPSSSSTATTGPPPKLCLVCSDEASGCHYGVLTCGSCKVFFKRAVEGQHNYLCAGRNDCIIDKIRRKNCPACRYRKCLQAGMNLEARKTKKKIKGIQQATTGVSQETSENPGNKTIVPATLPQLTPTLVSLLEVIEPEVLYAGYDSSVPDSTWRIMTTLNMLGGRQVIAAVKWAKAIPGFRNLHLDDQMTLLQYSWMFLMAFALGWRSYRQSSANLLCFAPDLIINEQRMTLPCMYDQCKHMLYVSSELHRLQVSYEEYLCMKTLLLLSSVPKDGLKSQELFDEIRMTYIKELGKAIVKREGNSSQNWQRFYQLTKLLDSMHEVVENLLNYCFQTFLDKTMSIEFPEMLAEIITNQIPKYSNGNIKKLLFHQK
# Legend:
# [1] = Stat Signaling Pathway (AID 446; active = well fitted curve in either direction with a large enough effect, not every such curve was filed as active; inconclusive = small, poorly fitted or top-dose-only effect, or another doubt;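 note: ME-180 cervical cancer cells given 40 pM IL-6 alongside compound; SIE-controlled beta-lactamase reporter measured as 460/530 nm FRET emission ratio; % is set by controls: 0 for no effect and ±100 for the full control effect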); settings: ME-180 SIE beta-lactamase reporter, IL-6 stimulated, 5 h; at 38 µM (top of the series) unless noted
# Outline: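 Normalization used AC90 stimulation (300 pM IL-6) and AC90 inhibition (125 nM pan-JAK inhibitor at 40 pM IL-6). The underlying signal is SIE-driven beta-lactamase in ME-180 cells after 5 h IL-6 exposure with compound.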
# [2] = molecular target: Mitogen-activated protein kinase 10 (Mus musculus) (UniProt Q61831); assay: JNK3 AlphaScreen Assay (AID 530; active = well fitted curve in either direction with a large enough effect, not every such curve was filed as active; inconclusive = small, poorly fitted or top-dose-only effect, or another doubt;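 note: kinase came from lysate of stimulated human HepG2 cells; signal reports phosphorylation of biotinylated GST-cJun 1-79 at Ser73 with 10 µM ATP; % is set by controls: 0 for no effect and ±100 for the full control effect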); settings: JNK3 lysate, c-Jun phosphorylation; activity change, negative = inhibition: at 57.1 µM (top of the series)
# Outline: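 Biotinylated GST-cJun(1-79) served as substrate for JNK3 in HepG2 lysates stimulated with IL-1beta and TNF-alpha. ATP was 10 uM final, pH 7.6. Ser73 phosphorylation was quantified by AlphaScreen (680 nm excitation).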
# [3] = qHTS Assay for Identification of Small Molecule Antagonists for Thrombopoietin (TPO) Signaling Pathway (AID 918); settings: TPO-dependent cell signaling reporter, antagonist mode; activity change, negative = inhibition: at 38.5 µM (top of the series); note: potency is the fitted concentration of half-maximal effect; nearly all actives have a fitted effect of over 60% in size
# Outline: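 Antagonist mode at EC50 TPO (26 pM) in IL-3-free medium; murine Ba/F3 cells with human TPO receptor and GPIIb-promoter luciferase, 24 hrs at 37 C before luminescent detection.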
# [4] = molecular target: Muscarinic acetylcholine receptor M1 (Rattus norvegicus) (UniProt P08482); assay: qHTS Assay for Antagonists of Acetylcholine Muscarinic M1 Receptor: Kinetic Measurement of Intracellular Calcium Response (AID 943); note: potency is the fitted concentration of half-maximal effect; nearly all actives have a fitted effect of over 75% in size
# Outline: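 Quantitative HTS in CHO-M1 (rat receptor) cells: 10 min compound exposure ahead of 100 nM carbachol, Fluo-4 fluorescence followed 4 min, value expressed as peak-to-basal ratio.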
# [5] = molecular target: Muscarinic acetylcholine receptor M1 (Rattus norvegicus) (UniProt P08482); assay: qHTS Assay for Antagonists of Acetylcholine Muscarinic M1 Receptor: Measurement of IP-One Response (AID 944); note: nearly all actives have a fitted effect of over 75% in size
# [6] = molecular target: Glucocorticoid receptor (Homo sapiens) (UniProt P04150); assay: GR-GFP Redistribution (AID 450;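 active = compounds whose dose series gives a full or clear partial fitted curve of increased nuclear translocation; inconclusive = weak partial curve or effect only at the top dose; inactive = no dose-dependent translocation response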; note: potency is the fitted concentration of half-maximal effect); settings: U2OS GR-GFP nuclear translocation, laser cytometry, 2 h
# [7] = qHTS Assay for Identification of Small Molecule Agonists for Hypoxia Response Element Signaling Pathway (AID 914; active = well fitted activation curve with a large enough effect in the signal ratio, with a control signal flat, not every such curve was filed as active; inconclusive = small, poorly fitted or top-dose-only effect, or effect the other way, or a change in a side signal; the % refers to the signal ratio; note: potency is the fitted concentration of half-maximal effect; for activation: % of control where 0% means no effect); settings: ME-180 HRE-bla reporter, beta-lactamase ratio, CoCl2, 17 h; activation: active compounds read high
# Outline: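 ME-180 cells carrying an HRE-driven beta-lactamase reporter were treated with compounds in a titration series plus an EC50 level of CoCl2 for 17 h at 37 degrees Celsius; CCF4 readout as the 460nm/530nm ratio gave AC50 values.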
# [8] = qHTS Assay for Identification of Small Molecule Antagonists for NFkB Signaling Pathway (AID 895; active = well fitted inhibition curve with a large enough effect in the signal ratio, with a control signal flat, not every such curve was filed as active; inconclusive = small, poorly fitted or top-dose-only effect, or effect the other way, or a change in a side signal; the % refers to the signal ratio; note: potency is the fitted concentration of half-maximal effect); settings: NFkB beta-lactamase reporter cells, FRET ratio 460/530; activity change, negative = inhibition: at 38.3 µM (top of the series) unless noted
# Outline: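 NFkB-bla ME-180 cervical carcinoma cells with beta-lactamase reporter under NFkB response element; compounds added, then TNF alpha at 10 pM final (EC50), 5 h at 37 C. LiveBLAzer substrate 2 h, room temperature; emission 460/530 nm at 405 nm excitation.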
# [9] = qHTS Assay for Identification of Small Molecule Agonists for Thrombopoietin (TPO) Signaling Pathway (AID 917); note: potency is the fitted concentration of half-maximal effect
# Outline: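 Ba/F3 (mouse) + hTPO receptor + GpIIb-promoter luciferase; IL-3 withdrawn overnight; compound + 26 pM TPO (EC50), 24 hrs, 37 C, 5% CO2; Steadylite luminescence, 10 min RT.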
# [10] = molecular target: Glucocorticoid receptor (Homo sapiens) (UniProt P04150); assay: GR-EFC Redistribution (AID 451; calls by dose curve; note: potency is the fitted concentration of half-maximal effect); settings: CHO-K1 GR-EFC translocation, beta-gal luminescence, 2 h
# Outline: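 CHO-K1 cells stably expressing nuclear-localized β-gal enzyme acceptor and GR fused C-terminally to the enzyme donor fragment; ligand-driven nuclear translocation restores β-gal by complementation. Compounds titrated up to 46 uM final, 2 h at 37 °C; luminescence read.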
structure (smiles),measurement,setting,value
CC(=O)[C@@H]1CC[C@@H]2[C@H]3CC[C@H]4C[C@@H](O)CC[C@]4(C)[C@@H]3C(=O)C[C@]21C,"activity, negative = inhibition",[1],inactive: -4.41%
same,"activity change, negative = inhibition",[2],inconclusive: -15.9%
C[C@@H](Cc1ccc2c(c1)OC(C(=O)O)(C(=O)O)O2)NC[C@H](O)c1cccc(Cl)c1,"activity, negative = inhibition",[1],inconclusive: 49.9% [activator]
same,"activity change, negative = inhibition",[3],inconclusive: -6.44% [phenotype inactive]
same,Potency,[4],"inconclusive: 0.0631 µM [inhibitor, full curve, poor fit]"
same,Potency,[5],inactive
CCCCSP1(=S)NCCCN1,Potency,[6],inactive: > 20.6 µM
CC(C)(C)OC(=O)c1c(N)n(Cc2ccco2)c2nc3ccccc3nc12,"activity, negative = inhibition",[1],inactive: -0.785% [at 17.2 µM]
same,Potency,[7],"inconclusive: 12.6 µM [activator, single point]"
CCCCc1nc2ccccc2c(=O)n1-c1ccccc1O,"activity, negative = inhibition",[1],inactive: 12.6% [at 17.2 µM]
same,activation,[7],inconclusive: -40.4%
CO[C@@H]1CC=C2CCN3CCC4=C(CC(=O)OC4)[C@]23C1,Potency,[6],inactive: > 46 µM
same,"activity change, negative = inhibition",[3],inconclusive: -11.7% [phenotype inactive]
same,Potency,[4],"inconclusive: 0.0562 µM [inhibitor, full curve, poor fit]"
same,Potency,[5],inactive
CCSCC[C@H](N)C(=O)O,Potency,[6],inactive: > 46 µM
O=C(O)C[C@H]1OCC=C2CN3CC[C@@]45C6=CC(=O)C(=O)C([N+](=O)[O-])=C6N[C@H]4[C@H]1[C@H]2C[C@@H]35,Potency,[6],inactive: > 46 µM
CC(C)[C@]1(O)[C@@H](OC(=O)c2ccc[nH]2)[C@]2(O)[C@@]3(C)C[C@@]4(O)O[C@@]5([C@H](O)[C@@H](C)CC[C@]35O)[C@]2(O)[C@]41C,"activity, negative = inhibition",[1],inactive: -4.77% [at 7.69 µM]
same,activation,[7],inactive: 12.8%
c1ccc(CN2CC[C@@]3(CCCNC3)C2)cc1,"activity, negative = inhibition",[1],inactive: -3.92% [at 7.69 µM]
same,activation,[7],inactive: 10.9%
C/C=C(\C)C(=O)O[C@@H]1C(C)=C2[C@H]([C@@H]1OC(=O)CCCCCCC)[C@@](C)(OC(C)=O)C[C@@H](OC(=O)CCC)[C@@]1(O)[C@H]2OC(=O)[C@]1(C)O,"activity, negative = inhibition",[1],inconclusive: -57.9% [inhibitor]
same,Potency,[8],"inconclusive: 11.2 µM [cytotoxic, side channel, single point]"
same,Potency,[7],"inconclusive: 31.6 µM [cytotoxic, side channel, single point]"
same,Potency,[9],"inconclusive: 0.0501 µM [inhibitor, full curve]"
same,Potency,[3],active: 0.0501 µM
C(=NCCN1CCOCC1)=NC1CCCCC1,Potency,[10],inconclusive: > 9.22 µM [single point]

# Another view of part of the listing above.
structure (smiles)	measurement	setting	value
C[C@@H](Cc1ccc2c(c1)OC(C(=O)O)(C(=O)O)O2)NC[C@H](O)c1cccc(Cl)c1	Potency	[5]	inactive
C/C=C(\C)C(=O)O[C@@H]1C(C)=C2[C@H]([C@@H]1OC(=O)CCCCCCC)[C@@](C)(OC(C)=O)C[C@@H](OC(=O)CCC)[C@@]1(O)[C@H]2OC(=O)[C@]1(C)O	activity, negative = inhibition	[1]	inconclusive: -57.9% [inhibitor]

# — PubChem BioAssay (NCATS)
